Measurements taken from article PMC10075225.
Results are given in words; binding and its absence hold for the method and conditions named. In cells and extracts the contact can be indirect. Some results given as binding are weak or reduced against the parent protein; the word gives no strength.

The chains behind the UniProt entries cited, without tags or fusion partners. Where a name states a change or a piece, a line headed by the entry shows the natural chain unless it says otherwise. A line that says so, or that is headed by a name, gives the form on record, which may keep a tag or linker. Residues count along the entry.
UniProt Q9BXW4, residues 1-126: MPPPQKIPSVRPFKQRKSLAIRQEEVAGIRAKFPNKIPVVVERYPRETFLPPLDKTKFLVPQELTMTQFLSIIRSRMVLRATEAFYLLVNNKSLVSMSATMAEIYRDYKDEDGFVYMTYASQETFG
UniProt P60520: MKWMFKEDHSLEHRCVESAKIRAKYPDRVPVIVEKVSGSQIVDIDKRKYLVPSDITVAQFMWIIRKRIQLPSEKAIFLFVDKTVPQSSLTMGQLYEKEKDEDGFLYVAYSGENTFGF
UniProt O95166: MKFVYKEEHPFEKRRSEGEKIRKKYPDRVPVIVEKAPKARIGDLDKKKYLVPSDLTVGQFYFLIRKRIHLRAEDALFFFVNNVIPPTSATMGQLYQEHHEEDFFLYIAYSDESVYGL
Y309A/L312A LMX1B-FLAG (O60663-1, form named): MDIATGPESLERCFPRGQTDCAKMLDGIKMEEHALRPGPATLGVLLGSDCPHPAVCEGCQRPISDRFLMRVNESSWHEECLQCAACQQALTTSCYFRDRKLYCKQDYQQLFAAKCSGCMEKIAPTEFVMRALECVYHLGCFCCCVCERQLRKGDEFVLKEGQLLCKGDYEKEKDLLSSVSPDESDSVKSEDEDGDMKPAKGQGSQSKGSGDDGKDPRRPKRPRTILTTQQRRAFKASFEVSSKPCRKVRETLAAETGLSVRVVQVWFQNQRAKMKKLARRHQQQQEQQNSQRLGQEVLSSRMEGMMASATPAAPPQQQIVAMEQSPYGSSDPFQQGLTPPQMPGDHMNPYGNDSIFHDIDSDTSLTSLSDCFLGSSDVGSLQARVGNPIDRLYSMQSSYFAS

How the values were obtained:
Test in all cases: co-IP; GFP-TRAP beads on whole lysates (50 mM Tris-HCl, 0.5% NP40) of HEK293T cells co-transfected with GFP-tagged ATG8 constructs and LMX1A or LMX1B-FLAG (or LIR mutants); 2 h at 4°C; immunoblot
GFP-LC3C (human) = GFP-LC3C (human) (UniProt Q9BXW4)
GFP-GABARAP-L2 (human) = GFP-GABARAP-L2 (human) (UniProt P60520)
GFP-GABARAP (human) = GFP-GABARAP (human) (UniProt O95166)
GFP-LC3A (human) = GFP-LC3A (human) (UniProt Q9H492)

Measured: binding

Y309A/L312A LMX1B-FLAG (from UniProt O60663-1 1-402)
binds: all assays above

LMX1B-FLAG (from UniProt O60663-1 1-402)
binds: all assays above
